# Measured values as given in the odorant receptor screen of Mainland et al. (2015).
# Where “and” joins values, the source holds several entries; their conditions need not be identical. Identical values can stand only once. This is one part of the list. Single wells; the ratio to wells without odorant was worked out here, and repeats agree poorly.
# How the values were obtained:
# Test in all cases: odorant receptor activation (CRE luciferase / Renilla) (fold of no-odor wells); higher = more activation
# Details in all cases: 100 µM
# [1] = tested on: OR5M1 S282T clone 1208
# [2] = tested on: OR5M10 V69L clone 1125
# [3] = tested on: OR5M11 clone 1236
# [4] = tested on: OR5M8 clone 1523
# [5] = tested on: OR5M9 clone 1194
# [6] = tested on: OR5P2 clone 1185
# [7] = tested on: OR5P3 clone 1115
# [8] = tested on: OR5R1 clone 1162
# [9] = tested on: OR5T1 clone 1249
# [10] = tested on: OR5T1 clone 1399
# [11] = tested on: OR5T2 clone 1313
# [12] = tested on: OR5T2 clone 1428
# [13] = tested on: OR5T3 clone 1343
# [14] = tested on: OR5V1 clone 1070
# [15] = tested on: OR6A2 clone 1489
# [16] = tested on: OR6B1 R143C clone 1181
# [17] = tested on: OR6B2 R122C clone 1444
# [18] = tested on: OR6B3 R261W clone 1445
# [19] = tested on: OR6C1 V74I/C130Y/L161F/H165D/V246I/R291K clone 1442
# [20] = tested on: OR6C2 clone 1413
SMILES,odorant receptor activation [1],odorant receptor activation [2],odorant receptor activation [3],odorant receptor activation [4],odorant receptor activation [5],odorant receptor activation [6],odorant receptor activation [7],odorant receptor activation [8],odorant receptor activation [9],odorant receptor activation [10],odorant receptor activation [11],odorant receptor activation [12],odorant receptor activation [13],odorant receptor activation [14],odorant receptor activation [15],odorant receptor activation [16],odorant receptor activation [17],odorant receptor activation [18],odorant receptor activation [19],odorant receptor activation [20]
CCOc1cc(C=O)ccc1O [ethyl vanillin],1.15 and 0.786,1.25,0.779,0.804 and 2.28 and 0.906,1.24 and 1,1.05 and 1.09,0.964 and 1.27,0.955 and 1.27,0.527 and 1.17,0.869 and 1.02,0.902 and 1.15,0.893 and 1.36,1.91 and 0.811,1.05 and 1.09,1.28 and 2.25 and 1.07,1.65 and 1.45,1.06 and 1.1,1.31 and 1.43,1.27 and 1.08,0.87 and 1
CCCCOC(C)=O [butyl acetate],1.12,0.875,0.623,1.18,1.04,1.1,1.03,1.27,0.863,0.193,0.912,0.223,0.852,1.26,0.885,0.884,0.346,0.356,0.141,0.215
CCC(C)=O [2-butanone],0.876,0.913,1.01,1.17,1.05,0.78,4.62,0.953,0.968,1.52,1.12,1.02,0.839,2.4,0.92,0.858,1.05,0.675,1.36,1.05
CS [methanethiol],0.869,0.768,0.94,0.828,0.991,1.16,1.31,0.746,0.833,0.817,0.861,0.937,0.829,1.12,0.937,0.734,0.743,0.915,1.16,0.857
